# Data from publication PMC7819943, “Rice protein-binding microarrays: a tool to detect cis-acting elements near promoter regions in rice”.
# This is one part of the list.
# Target: T1, OsSMF1 (Oryza sativa, UniProt Q6ZLB0 1-436)
# T1 sequence: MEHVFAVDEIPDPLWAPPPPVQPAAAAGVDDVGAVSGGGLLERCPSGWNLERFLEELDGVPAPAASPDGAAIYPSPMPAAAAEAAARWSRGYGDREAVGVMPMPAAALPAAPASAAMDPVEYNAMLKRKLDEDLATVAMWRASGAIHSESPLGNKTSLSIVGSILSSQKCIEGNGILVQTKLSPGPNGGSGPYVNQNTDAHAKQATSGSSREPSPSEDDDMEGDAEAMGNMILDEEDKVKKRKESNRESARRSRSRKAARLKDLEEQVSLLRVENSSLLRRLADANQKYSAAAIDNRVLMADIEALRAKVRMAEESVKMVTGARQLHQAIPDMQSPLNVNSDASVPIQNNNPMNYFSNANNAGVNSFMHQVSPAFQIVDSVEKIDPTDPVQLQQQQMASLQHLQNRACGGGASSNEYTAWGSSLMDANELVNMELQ
# Assay: protein-binding microarray (RPBM); PBS, 2% BSA, 51.3 ng/ul salmon testes DNA, 50 uM zinc acetate, 200 nM TF, 25 C, 1 h; high values mean tight binding
# Conditions: protein: recombinant; tags: N-terminal polyhistidine and DsRed monomer fusion (pET32a); chain copies: 2; label: CyDye5-dUTP incorporated in the synthesized complementary strand; 3' TTTTT single-stranded linker to array surface; dsDNA, one strand shown
# Summary of the method: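 The binding signal is fluorescence intensity per feature, in arbitrary units, read on an Axon 4000B scanner. Polyhistidine- and DsRed-tagged transcription factors (N-terminal fusions) from E. coli BL21-CodonPlus were purified on Ni–NTA and applied at 200 nM for 1 h at 25 °C to a double-stranded, BSA-blocked custom Agilent array in buffer with 50 µM zinc acetate.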
row,Sequence,binding signal
1,AAACATTTCCCTTTTAAGTTGAGCTGTCATAAATCATAATCGGAGTCACCTAGTGCAG,3170 fluorescence intensity (a.u.)
2,AGCTCTACAAGGACCTAAAATTAAGGGTGCCAACTATTAGCGGAGTCACCTAGTGCAG,3410 fluorescence intensity (a.u.)
3,AAGGGGAGATCACACACTGAGTCACTGACTGACTAAATCGCGGAGTCACCTAGTGCAG,4010 fluorescence intensity (a.u.)
4,CGTTGTCAACCCTACCATCCCCAAACTGGTCCCGTTCGTTCGGAGTCACCTAGTGCAG,31300 fluorescence intensity (a.u.)
5,AACTTCTAAAATTATAAGAAAAGTACGTCAGTATTATTTGCGGAGTCACCTAGTGCAG,3810 fluorescence intensity (a.u.)
6,TGGTGTCCTCTGTTATCGATTATCAACGTGGGAGTAAATCCGGAGTCACCTAGTGCAG,4650 fluorescence intensity (a.u.)
7,CCCACAACCAAATCAACAACCACGCCATTGCCGTTCTCTCCGGAGTCACCTAGTGCAG,3520 fluorescence intensity (a.u.)
8,TGTGCTTGGAAATCAAAGATTGGATGTCACGTGTAGTACGCGGAGTCACCTAGTGCAG,3560 fluorescence intensity (a.u.)
9,CTGTCCACGCTATTGCCATTGCATGACCACGTTAAACACCCGGAGTCACCTAGTGCAG,3640 fluorescence intensity (a.u.)
10,CCGGTTTTATCTAACGTGGCGGATGAGTCAGCGTGAGACCCGGAGTCACCTAGTGCAG,14600 fluorescence intensity (a.u.)
11,GAAGAATAGGGAGTCACACATTAAATCCGAGAAAGTCAATCGGAGTCACCTAGTGCAG,3640 fluorescence intensity (a.u.)
12,TTTGACGGTAACACATATGGCTGTGCGTGGCTCCACCATTCGGAGTCACCTAGTGCAG,3620 fluorescence intensity (a.u.)
13,ACAAGAAGACATGAACATCAAGTGAAGCAGGGAGGGGCACCGGAGTCACCTAGTGCAG,11900 fluorescence intensity (a.u.)
14,CTGATATCTGTCTTCACATAGATTAGGAGCAAAATTTATCCGGAGTCACCTAGTGCAG,31000 fluorescence intensity (a.u.)
15,CAATATCTATGCTTTTGTCTGACGTCTTGGATATCTCCATCGGAGTCACCTAGTGCAG,3390 fluorescence intensity (a.u.)
16,GAATAGAACATGTACAGTGACACATCTGCATTGGAAGCGTCGGAGTCACCTAGTGCAG,7380 fluorescence intensity (a.u.)
17,AGGTGAGCGCCGCTGTGCTCACCTAACCCACACACGTGGCCGGAGTCACCTAGTGCAG,7480 fluorescence intensity (a.u.)
18,TTCCCCTTCTGTTACGTGACACACCCGGCTGCTACCGCACCGGAGTCACCTAGTGCAG,3700 fluorescence intensity (a.u.)
19,CACACTACTTTCCACTACTCTATCAAGTGCATCTCCAAATCGGAGTCACCTAGTGCAG,7110 fluorescence intensity (a.u.)
20,TTTCGAACTCACTAATCCCAATTCCCACGCAACATTGTCCCGGAGTCACCTAGTGCAG,3180 fluorescence intensity (a.u.)
21,CTACTAATAAGGCGTGTTATTATTGGTCATCAATGGCGTCCGGAGTCACCTAGTGCAG,3300 fluorescence intensity (a.u.)

row,Sequence,binding signal
1,AAAGTAGTTTTACACGTAAATCGGGCGCTGACGTTATCAGCGGAGTCACCTAGTGCAG,5310 fluorescence intensity (a.u.)
2,TTAAGTCCCTGGATCCAAACACCACGTGAGTCGACAGTTGCGGAGTCACCTAGTGCAG,3270 fluorescence intensity (a.u.)
3,ACCTGTGAATGTCTCTAGTGTGACGACTCTACTTCAGTTTCGGAGTCACCTAGTGCAG,4050 fluorescence intensity (a.u.)
4,CCCGTTAGGAGAGTTCATAAACGGCGTCACTGCTGGTTTTCGGAGTCACCTAGTGCAG,3640 fluorescence intensity (a.u.)
5,CTCTATCTCTCACTCTGAATTCTGAAAATGATCAGTTCCTCGGAGTCACCTAGTGCAG,16600 fluorescence intensity (a.u.)
6,AAATGGGTCATTTTCTTGCCACCTCCATGTTGGTAATGTGCGGAGTCACCTAGTGCAG,4180 fluorescence intensity (a.u.)
7,AAGTCTAACTGGGATCCACCTACTTCTCCTCTCACTGCCGCGGAGTCACCTAGTGCAG,5930 fluorescence intensity (a.u.)
8,GGGCTCCACGTTAGCTCCGGGCCCACGTGTCATCGGCTATCGGAGTCACCTAGTGCAG,23000 fluorescence intensity (a.u.)
9,TTTGTTGTGCAGACCTGCTTGTGACATTGCAATTTCTGGTCGGAGTCACCTAGTGCAG,4450 fluorescence intensity (a.u.)
10,TTTAGCGTATTTTCTGTGGGTCCCATTTACCACGTCAGCACGGAGTCACCTAGTGCAG,29400 fluorescence intensity (a.u.)
11,GAGTTGGGCTATATTTGTTTTCTATTCGAACAATTTGGTACGGAGTCACCTAGTGCAG,3660 fluorescence intensity (a.u.)
12,ACTGGTCTACACCGCGTCGCAAAATACCGTCAGACGGATGCGGAGTCACCTAGTGCAG,3540 fluorescence intensity (a.u.)
13,TTTCAGTAGCGTCGGCTGCTCTATCTACTTGCATTGCCTGCGGAGTCACCTAGTGCAG,41000 fluorescence intensity (a.u.)
14,AAGCATCCATCCAACCATCCACGTGTCCGTCACAGCATCTCGGAGTCACCTAGTGCAG,20200 fluorescence intensity (a.u.)
15,CATGCACGCATGGCGATCCTTGTAGAATTAATCCGAACAGCGGAGTCACCTAGTGCAG,3260 fluorescence intensity (a.u.)
16,CCACCACACATATAACCCAGCGACGTGGCCTCCGCTCGCTCGGAGTCACCTAGTGCAG,5710 fluorescence intensity (a.u.)
17,GTGGAGGTGATGTGATGTGATTAGTTGACGAGACGGGGAGCGGAGTCACCTAGTGCAG,3210 fluorescence intensity (a.u.)
18,CCACAGCTTGTGCATTCTTACAAGCATAACACGTGGACGACGGAGTCACCTAGTGCAG,10200 fluorescence intensity (a.u.)
19,TCGAGATATTTTGGAGTGGTCATCATCACTCCCTCGTCGCCGGAGTCACCTAGTGCAG,3380 fluorescence intensity (a.u.)
20,AGCCTCCCCACCAACCGCCACGTCAGCGTGCTTCACGCGTCGGAGTCACCTAGTGCAG,18700 fluorescence intensity (a.u.)
21,TTTATACCCTCCTGATCAGTGCATCTAGTGCCGTCATCCTCGGAGTCACCTAGTGCAG,4500 fluorescence intensity (a.u.)

# Fetched one by one from above, 2 records:
row,Sequence,binding signal
21,TTTATACCCTCCTGATCAGTGCATCTAGTGCCGTCATCCTCGGAGTCACCTAGTGCAG,4500 fluorescence intensity (a.u.)
12,ACTGGTCTACACCGCGTCGCAAAATACCGTCAGACGGATGCGGAGTCACCTAGTGCAG,3540 fluorescence intensity (a.u.)
